For this experiment, the target named is T1, SPANX-C-V5 fusion protein (UniProt Q9NY87).
T1 sequence: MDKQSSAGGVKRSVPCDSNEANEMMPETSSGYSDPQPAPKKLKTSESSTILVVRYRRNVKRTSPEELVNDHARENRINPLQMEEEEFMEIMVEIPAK
Put plainly: co-IP; anti-V5 immunoprecipitates of cell lysates, immunoblotted with antibodies against V5 and the endogenous partner; immunoprecipitation as described in ref. 59. On the technique in general: A western blot detects proteins with antibodies after separation by electrophoresis.

By UniProt entry, the sequences of proteins in these tests, tags left out. Residues count along the entry.
UniProt P02545, residues 1-646: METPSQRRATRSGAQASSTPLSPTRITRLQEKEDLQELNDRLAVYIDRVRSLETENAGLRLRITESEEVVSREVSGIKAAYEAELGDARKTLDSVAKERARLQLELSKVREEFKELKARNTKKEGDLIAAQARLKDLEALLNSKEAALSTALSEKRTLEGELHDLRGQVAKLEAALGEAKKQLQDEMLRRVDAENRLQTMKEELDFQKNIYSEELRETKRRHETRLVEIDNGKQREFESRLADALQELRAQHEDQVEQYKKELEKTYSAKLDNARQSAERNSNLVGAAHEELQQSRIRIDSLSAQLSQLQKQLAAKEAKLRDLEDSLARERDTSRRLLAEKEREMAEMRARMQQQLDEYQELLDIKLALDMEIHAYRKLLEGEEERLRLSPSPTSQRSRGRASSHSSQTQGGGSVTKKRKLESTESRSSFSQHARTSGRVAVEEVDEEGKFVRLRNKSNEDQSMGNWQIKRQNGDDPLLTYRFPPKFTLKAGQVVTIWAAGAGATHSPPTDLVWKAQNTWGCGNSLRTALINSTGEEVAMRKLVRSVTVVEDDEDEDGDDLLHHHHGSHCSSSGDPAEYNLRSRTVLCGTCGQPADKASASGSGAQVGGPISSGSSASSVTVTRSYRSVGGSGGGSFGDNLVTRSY

Results are given in words; binding and its absence hold for the method and conditions named. Binding seen in cells or lysates may run through a third protein. Some results given as binding are weak or reduced against the parent protein; the word gives no strength. Tags and fused reporters may be left off the sequences shown.

The record followed here is PMC4924746.

For “Lamin A/C (Lamin A and Lamin C, products of the LMNA gene) (from UniProt P02545 1-646)”, the binding entry is recorded as “binds”.
